Experimental findings from publication PMC7819943, “Rice protein-binding microarrays: a tool to detect cis-acting elements near promoter regions in rice” are described below.

Sequences of proteins named here, by UniProt entry; tags and fusion partners are left off.
UniProt Q0JBA9, entry or part of it: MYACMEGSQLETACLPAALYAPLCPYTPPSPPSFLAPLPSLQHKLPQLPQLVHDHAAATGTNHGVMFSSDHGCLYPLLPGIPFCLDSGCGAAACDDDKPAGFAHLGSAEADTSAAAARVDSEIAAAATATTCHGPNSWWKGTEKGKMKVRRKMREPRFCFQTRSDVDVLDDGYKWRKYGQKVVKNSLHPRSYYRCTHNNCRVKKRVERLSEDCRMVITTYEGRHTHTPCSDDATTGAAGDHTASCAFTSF

The list shows a part of the results.

The target of this assay is OsWRKY34 (Oryza sativa, UniProt Q0JBA9 1-250). The assay can be described thus: protein-binding microarray (RPBM); PBS, 2% BSA, 51.3 ng/ul salmon testes DNA, 50 uM zinc acetate, 200 nM TF, 25 C, 1 h; high values mean tight binding. The following applies: protein: recombinant; tags: N-terminal polyhistidine and DsRed monomer fusion (pET32a); label: CyDye5-dUTP incorporated in the synthesized complementary strand; 3' TTTTT single-stranded linker to array surface; dsDNA, one strand shown. The method, boiled down:
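Binding signal is reported as fluorescence intensity per feature (arbitrary units) from an Axon 4000B scanner. Incubation used 200 nM of each Ni–NTA-purified, N-terminally polyhistidine- and DsRed-fused transcription factor from E. coli BL21-CodonPlus on a double-stranded custom Agilent array for 1 h at 25 °C, with 50 µM zinc acetate in the buffer, followed by washing.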
For the sequence “CATCTTACTCTAGCTTCTCCATTCCAAAATTCACCACCGCCGGAGTCACCTAGTGCAG”, the binding signal is 8720 fluorescence intensity (a.u.).

“TCTTGATTCACAAACGTTTCCCAGCCACACTCGGTCAAATCGGAGTCACCTAGTGCAG”: the binding signal is 9850 fluorescence intensity (a.u.).

As to “ACCGGACACCACCCCATGCCGCGCGGCCGTGCGGCGCCCCCGGAGTCACCTAGTGCAG”, the binding signal was 8340 fluorescence intensity (a.u.).

For “GCCACTTACACAGTATTTATACCTCATTTACACCCCACTTCGGAGTCACCTAGTGCAG”, the binding signal was 8400 fluorescence intensity (a.u.).

As to “AACCCACCTATCTTGTTTTCCACGTGTACGCTTTTCAAACCGGAGTCACCTAGTGCAG”, the binding signal was 19200 fluorescence intensity (a.u.).

For “GCAGCACTCACAGCTCGACACGTGTCCCGCATCACGTGTCCGGAGTCACCTAGTGCAG”, the binding signal is 9190 fluorescence intensity (a.u.).

Regarding “ATTTGTCGTTTTGCATGCCGTATTTAGGCCCTATTTAGTTCGGAGTCACCTAGTGCAG”, the binding signal was 9760 fluorescence intensity (a.u.).

Consider “CTCGCACCCGCACCCGTACCAACCCCGACCGAGCGAGCCGCGGAGTCACCTAGTGCAG”, for which the binding signal was 8480 fluorescence intensity (a.u.).

With “TTGGGGTTATTTTTCAGATGGGTCCCACCTTATTACCCACCGGAGTCACCTAGTGCAG”, the binding signal is 9560 fluorescence intensity (a.u.).

Turning to “CCCCAAACACACACACAGCAAGTGGTTTTTCCTCTTGTTTCGGAGTCACCTAGTGCAG”, the binding signal was 8950 fluorescence intensity (a.u.).

In the case of “ATATATATATATATATATATATATATGCAGCAACAGGGCCCGGAGTCACCTAGTGCAG”, the binding signal is 17400 fluorescence intensity (a.u.).

Regarding “ACCTTTTTCTTGTTTCTTCCTGTGTTGGGTAATTCGGTTTCGGAGTCACCTAGTGCAG”, the binding signal was 14100 fluorescence intensity (a.u.).

Take “ATTAATATCTGGCTCACCTATCTCTCGTATATTTTTTTTTCGGAGTCACCTAGTGCAG”: the binding signal is 11000 fluorescence intensity (a.u.).

On to “ACTAATCACCTGTCACGATGCCACTACCCGGAAAAAAAAACGGAGTCACCTAGTGCAG”, for which the binding signal was 8850 fluorescence intensity (a.u.).

As for “GCCTTGTTTAGTTCCCAAAATAAAAATTTTTACGCTGTCACGGAGTCACCTAGTGCAG”, the binding signal was 10800 fluorescence intensity (a.u.).

“ACTGCACGGTTAATTTCCTTGTAATTCATACACTACACAACGGAGTCACCTAGTGCAG”: the binding signal is 9260 fluorescence intensity (a.u.).

Take “CACCTAGTACACTCATAATGTTTCACTATGTATAGATTTACGGAGTCACCTAGTGCAG”: the binding signal is 10000 fluorescence intensity (a.u.).

In the case of “AATCCGCTTACATCCTTAATACTTTCTCCGTCCAGAATATCGGAGTCACCTAGTGCAG”, the binding signal is 10500 fluorescence intensity (a.u.).

“GCCAGATCTTCACATCTTCTCTGGACATTTTCCTAGAGGACGGAGTCACCTAGTGCAG”: the binding signal is 8040 fluorescence intensity (a.u.).

In the case of “ATACCTGCTCGGGCCCGAGACGCTCTGCGTTATCTATGTCCGGAGTCACCTAGTGCAG”, the binding signal is 8060 fluorescence intensity (a.u.).

In the case of “GGACACCTTCTCACCGGAGGAGCCTTGCCGCGGGGATAATCGGAGTCACCTAGTGCAG”, the binding signal is 8130 fluorescence intensity (a.u.).

Consider “CTCCATCTCGCATCTTCTCTTTCTCTTTCTCTTTCTCTTTCGGAGTCACCTAGTGCAG”, for which the binding signal is 13300 fluorescence intensity (a.u.).

On to “GCACTACCTTCACCATTTTTTTTGATTTTTTTCTTTTTTTCGGAGTCACCTAGTGCAG”, for which the binding signal is 8270 fluorescence intensity (a.u.).
